This is one part of the list. These are further read-outs of the screen, such as a control signal, another cell line or another target. No call is given for them. The list favours compounds with an active or inconclusive main result. Potencies come from curve fits of mixed quality, noted in brackets.
Assay: qHTS Assay for Lipid Storage Modulators in Drosophila S3 Cells;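 for cell number change: cells counted by Cell Tracker Red CMTPX staining in the red channel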
Conditions: BODIPY lipid droplet fluorescence, 18-24 h; for cell number change: measured here: cell count max response, cells fed with added oleic acid
Summary of the method: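 Drosophila S3 cells loaded with oleic acid (400 uM, as added) and compounds at several concentrations; lipid droplets imaged by 488-nm laser-scanning cytometry, 500–530 nm intensity and object ratio to cell channel. Percent activity normalized to 20 uM Triacsin C.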

[1] = measured here: cell number channel AC50, cells fed with added oleic acid
[2] = measured here: lipid fluorescence (Fed channel) AC50, cells fed with added oleic acid

| Structure (SMILES) | cell number change | AC50 [1] | AC50 [2] |
| --- | --- | --- | --- |
| O=C(Nc1ccc(F)cc1)c1cc2c(s1)CCCC2 | 7.13% | 0.164 µM [falling, full curve, poor fit] | – |
| CCC/C=N/NC(=O)c1ccccc1O | -20.6% | – | 23.1 µM [falling, single point] |
| CCOC(=O)N1CCN(c2nc3ccccc3nc2C(C#N)S(=O)(=O)c2ccc(C)cc2)CC1 (configuration not stated) | – | 0.00461 µM [rising, full curve, poor fit] | 3.66 µM [rising, partial curve, poor fit] |
| Cc1cc(Nc2ccc(C(=O)O)cc2)nc(N)n1 | 25.8% | – | – |
| S=c1[nH]nc(-c2ccc(Cl)cc2)n1Cc1ccccc1 | -29.8% | – | 20.6 µM [falling, single point] |
| CC(NC(=O)c1ccc(N(C)C)cc1)C1CC2CCC1C2 (configuration not stated) | – | 0.092 µM [rising, full curve, poor fit] | – |
| O=C(CNC(=S)N(CCCN1CCOCC1)Cc1cccs1)N1CCCC1 | 2.82% | 6.51 µM [rising, single point] | 6.51 µM [rising, partial curve] |
| CSc1ccc(S(=O)(=O)N2CCC(C(=O)NCc3ccccn3)CC2)cc1 | 26.1% | – | 18.4 µM [rising, partial curve] |
| CC1=NN(C(=S)Nc2ccccc2)C(c2ccccc2)C1 (configuration not stated) | -42.7% | 2.91 µM [falling, single point] | 4.61 µM [rising, single point] |
| CN1C(=O)C(C)(C)c2cc(S(=O)(=O)N3CCN(c4ccccc4F)CC3)ccc21 | -1.44% | – | 11.6 µM [falling, single point] |
| CN(Cc1ccc(F)cc1)C(=O)c1cccc(OCc2ccccc2)c1 | -5.26% | – | – |
| O=C(CSCc1nc2ccccc2[nH]1)N1CCN(c2ccc(F)cc2)CC1 | -29.9% | – | 0.651 µM [rising, single point] |
| COc1cccc(/C=N/NC(=O)c2ccc(=O)n(C)c2)c1O | -2.11% | – | 18.4 µM [rising, single point] |
| c1ccc(-n2nnnc2-n2cnc3ccccc32)cc1 | 48% | 9.2 µM [rising, partial curve] | 6.51 µM [falling, single point] |
| Cc1cc2ccccc2n1CCNC(=O)c1ccc(S(=O)(=O)N2CCCCC2)cc1 | – | – | 29.1 µM [falling, single point] |
| O=C(OCc1ccccc1)C1=NNC2C(=O)N(c3ccccc3)C(=O)C12 (configuration not stated) | 6.03% | 6.51 µM [rising, single point] | 0.13 µM [rising, full curve, poor fit] |
| COc1ccc(-c2cc(C(=O)OC3CCOC3=O)c3ccccc3n2)cc1OC (configuration not stated) | 0.363% | – | 29.1 µM [rising, single point] |
| CC1=NN(C(C#N)c2c(C)nn(Cc3ccccc3)c2C)C(C)(C)C1 (configuration not stated) | 20.7% | – | 16.4 µM [rising, partial curve, poor fit] |

| Structure (SMILES) | cell number change | AC50 [1] | AC50 [2] |
| --- | --- | --- | --- |
| CN(C)S(=O)(=O)N1CCC(Oc2cccc(C(=O)NC3CCCCC3)c2)CC1 | -34.3% | 9.2 µM [falling, partial curve] | 16.4 µM [falling, partial curve, poor fit] |
| Cc1nc(N2CCN(S(=O)(=O)c3ccccc3)CC2)c2cc(-c3ccccc3)sc2n1 | 30.4% | 2.06 µM [rising, full curve] | 0.0326 µM [rising, full curve] |
| CC(=O)Oc1ccc(-c2ccc(C(=O)OCC(=O)N(C)CC(=O)Nc3ccccc3Cl)cc2)cc1 | – | – | 0.146 µM [rising, full curve, poor fit] |
| CC(OC(=O)c1nc(Cl)ccc1Cl)C(=O)NC1CCCCC1C (configuration not stated) | -38% | 18.4 µM [falling, partial curve] | – |
| O=C(CN(CC1CCCO1)C(=O)CNS(=O)(=O)c1ccc(F)cc1)NC1CCCC1 (configuration not stated) | -1.28% | – | – |
| CC(C)(C)c1ccc(S(=O)(=O)NC(Cc2ccccc2)C(=O)O)cc1 (configuration not stated) | -67.7% | 5.8 µM [falling, partial curve] | 0.0164 µM [falling, full curve, poor fit] |
| CSc1ccccc1NC(=O)Cn1c(-c2cscn2)nc2ccccc21 | – | 0.103 µM [rising, full curve, poor fit] | 0.13 µM [rising, full curve, poor fit] |
| O=C(Nc1ccc2c(c1)OCCO2)c1cccc2nc3ccccc3nc12 | -86.6% | 29.1 µM [falling, single point] | 18.4 µM [falling, partial curve] |
| O=C(NC1=NCCS1)c1cccc2ccccc12 | 37.2% | 1.03 µM [rising, full curve, poor fit] | – |
| O=C(CCC(=O)OCc1ccc([N+](=O)[O-])cc1)Nc1ccccc1Cl | -30.9% | 29.1 µM [falling, single point] | 23.1 µM [falling, single point] |
| CCOC(=O)c1ccc(NC(=O)C2C3C=CC(C3)C2C(=O)O)cc1 (configuration not stated) | -1.82% | – | 0.058 µM [falling, full curve, poor fit] |
| CCOc1ccc(Nc2ncnc3c2cnn3-c2ccccc2)cc1 | – | 2.06 µM [rising, partial curve, poor fit] | – |
| Cc1ccc(C)c(NC(=O)CN(C)C(=O)c2ccccc2OCc2ccc(Cl)cc2)c1 | 48.5% | 18.4 µM [rising, partial curve] | – |
| O=C(c1ccc[nH]c1=S)N1CCN(S(=O)(=O)c2ccc(Br)cc2Cl)CC1 | 6.09% | – | 0.103 µM [falling, full curve, poor fit] |
| CC1=C(C(=O)N(C)C)C(c2ccccc2OC(F)F)NC(=O)N1 (configuration not stated) | 4.11% | – | – |
| O=C(c1ccco1)N1CCN(C(=O)C2CCCN(S(=O)(=O)Cc3ccccc3)C2)CC1 (configuration not stated) | 18.4% | – | 4.11 µM [rising, partial curve] |
| CC1CN(S(=O)(=O)c2cc(C(=O)NCc3ccncc3)ccc2Cl)CC(C)O1 (configuration not stated) | -6.33% | – | 0.13 µM [rising, full curve] |
| C/[N+]([O-])=C\CC(=O)c1ccc(-c2ccccc2)cc1 | 0.678% | – | – |

Part of the list above in another layout:
Structure (SMILES)	cell number change	AC50 [1]	AC50 [2]
CC1=NN(C(=S)Nc2ccccc2)C(c2ccccc2)C1 (configuration not stated)	-42.7%	2.91 µM [falling, single point]	4.61 µM [rising, single point]
CN1C(=O)C(C)(C)c2cc(S(=O)(=O)N3CCN(c4ccccc4F)CC3)ccc21	-1.44%	–	11.6 µM [falling, single point]
O=C(CSCc1nc2ccccc2[nH]1)N1CCN(c2ccc(F)cc2)CC1	-29.9%	–	0.651 µM [rising, single point]
CC1=NN(C(C#N)c2c(C)nn(Cc3ccccc3)c2C)C(C)(C)C1 (configuration not stated)	20.7%	–	16.4 µM [rising, partial curve, poor fit]
CC(=O)Oc1ccc(-c2ccc(C(=O)OCC(=O)N(C)CC(=O)Nc3ccccc3Cl)cc2)cc1	–	–	0.146 µM [rising, full curve, poor fit]
O=C(CN(CC1CCCO1)C(=O)CNS(=O)(=O)c1ccc(F)cc1)NC1CCCC1 (configuration not stated)	-1.28%	–	–
O=C(CCC(=O)OCc1ccc([N+](=O)[O-])cc1)Nc1ccccc1Cl	-30.9%	29.1 µM [falling, single point]	23.1 µM [falling, single point]
O=C(c1ccc[nH]c1=S)N1CCN(S(=O)(=O)c2ccc(Br)cc2Cl)CC1	6.09%	–	0.103 µM [falling, full curve, poor fit]
CC1=C(C(=O)N(C)C)C(c2ccccc2OC(F)F)NC(=O)N1 (configuration not stated)	4.11%	–	–
O=C(c1ccco1)N1CCN(C(=O)C2CCCN(S(=O)(=O)Cc3ccccc3)C2)CC1 (configuration not stated)	18.4%	–	4.11 µM [rising, partial curve]

From PubChem BioAssay AID2685 (National Center for Advancing Translational Sciences (NCATS), 2010)
